# Source: the supplement of paper PMC3334620
# The full ranking holds about 33,000 sequences; the median of “E-score (-0.5 to 0.5)” is about -0.0014, and the highest 2% start at about 0.25. The list shows a part of the results.
# Target: T1, Cad1 (UniProt P24813)
# T1 sequence: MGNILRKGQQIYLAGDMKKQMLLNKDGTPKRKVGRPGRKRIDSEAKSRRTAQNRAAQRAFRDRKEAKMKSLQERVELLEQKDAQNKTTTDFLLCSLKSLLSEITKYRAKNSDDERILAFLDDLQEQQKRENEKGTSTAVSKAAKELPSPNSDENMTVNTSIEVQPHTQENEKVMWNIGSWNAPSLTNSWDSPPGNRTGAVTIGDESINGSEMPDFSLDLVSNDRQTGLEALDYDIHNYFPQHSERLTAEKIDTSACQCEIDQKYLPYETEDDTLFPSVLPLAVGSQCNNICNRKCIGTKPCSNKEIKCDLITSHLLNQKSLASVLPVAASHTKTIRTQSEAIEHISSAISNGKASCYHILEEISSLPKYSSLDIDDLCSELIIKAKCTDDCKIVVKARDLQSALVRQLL
# Assay: PBM E-score (8-mer binding enrichment) (E-score (-0.5 to 0.5)); higher = stronger / more preferred TF binding
# Conditions: protein concentration: 100 nM; construct: GST-full length
# Procedure: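 Universal 'all 10-mer' protein binding microarrays (Agilent AMADID 015681) probed with GST-tagged S. cerevisiae TFs (full-length or DBD) made by in vitro transcription/translation (PURExpress), about 100-200 nM. Bound TF was detected with fluorescent anti-GST. Each ungapped 8-mer (which stands for itself and its reverse complement) is scored by the PBM enrichment score (E-score), a modified Wilcoxon-Mann-Whitney statistic from -0.5 to +0.5, computed with the Universal PBM Analysis Suite. Scale: above 0.35 generally sequence-specific binding.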
row,Sequence,PBM E-score
1,ACTAATTC,0.306
2,CAAGGTGC,0.0221
3,GTAGAGTA,-0.00497
4,GGTCACAA,-0.0946
5,GACTAATC,0.362
6,GTCCCAAC,-0.00293
7,ATCCATAA,0.199
8,AGCATTCA,0.0215
9,AAAGGCCC,-0.223
10,GATGCATC,0.178
11,ACATCAGA,0.0424
12,AGTGATTC,0.11
13,ACGGTAAT,-0.0679
14,AACAATAA,0.211
15,ATCACCAT,0.0725
16,CAACGGGG,-0.0873
17,CCGTCAAG,-0.0183
18,GTATCGAC,0.156
19,ATTCACCG,0.039
20,CATTTAAC,0.103
21,CTCGCCAC,-0.0198
22,CCCAAGGA,-0.143
23,AACCATGT,0.0509
24,GCAACACA,0.129
25,ACCGAATG,-0.0107

row,Sequence,PBM E-score
1,ACCTCTGA,-0.166
2,GAGAGGGC,-0.361
3,AAACGCCG,0.168
4,AGTCTAAC,-0.148
5,TGGTAACA,-0.0107
6,CTCAGAGC,-0.153
7,GAAAACGA,0.144
8,AAAAAAAT,0.162
9,GAGAAAAC,0.117
10,AAATTACC,0.081
11,AGAGTAGC,-0.144
12,TATCAGAA,0.119
13,TCCGACCA,-0.0796
14,CTGCAGTC,-0.0585
15,AATATAGT,0.281
16,ATATGAAA,0.132
17,ATAATTGG,-0.0135
18,GTATTATA,0.224
19,ATAACCGG,-0.204
20,AGACTATG,-0.104
21,ATGAGTTC,0.0316
22,CATGGTCG,-0.0949
23,GGCAACCC,-0.174
24,AGGCGGCA,-0.163
25,CCTAAGAC,-0.205

row,Sequence,PBM E-score
1,AACTCGGG,-0.0211
2,AGATGTCG,-0.0881
3,ACCCGCGA,0.0834
4,AGTTGTCG,0.0856
5,GAAATGGA,-0.0458
6,ACTATGCT,0.123
7,CAACACTA,0.19
8,AACACATT,0.157
9,CAGGAATG,-0.127
10,CGTGGAGC,0.0027
11,ATCCGTAA,0.073
12,TCGCGCAA,0.27
13,ACAAGGCG,-0.0345
14,TTAAATAA,0.139
15,TGAGTAAA,0.00963
16,ACTTGGAT,0.153
17,GGATAGGA,-0.00441
18,GAGCAGAA,0.0066
19,CGCGCCTA,0.184
20,GGAGAGCA,-0.203
21,CATAGATG,-0.228
22,GAGGGCGC,-0.0389
23,GAGTTAAA,0.0147
24,GGAAGGAC,-0.0619
25,GACGCAGA,0.0101

row,Sequence,PBM E-score
1,AAATTGCT,0.127
2,CGCAGCAA,-0.0384
3,CCTGGGTC,-0.177
4,AGTTGATG,0.0479
5,AAGTACAG,-0.0834
6,ATCTGAAG,-0.139
7,AATCGTTC,0.0436
8,CGTCCAAG,-0.083
9,ATCTTATC,0.19
10,TGTCTAAA,0.177
11,ACCCACAC,0.137
12,GGGCGCTA,-0.179
13,ATCCCAAG,-0.0569
14,ATTTGTTA,0.203
15,GAGATTAA,0.0578
16,CCACAGTA,0.0727
17,ACGGGCAG,-0.0111
18,CATTAATG,0.198
19,AGAGGCTC,-0.143
20,CTTGGTAC,0.183
21,AATATGCC,-0.182
22,CTTTTCAC,0.126
23,CTGATTAA,0.362
24,GGGACTAC,-0.154
25,CAATGCAC,-0.0659

row,Sequence,PBM E-score
1,CGAGCGGA,-0.0607
2,CAGTAATA,0.249
3,CCTCGGAA,0.152
4,CAAGCGAC,-0.0531
5,GCTTAGCA,0.122
6,ACTCATAG,-0.0684
7,CCTCGTGC,-0.0281
8,ATACGTTA,-0.0175
9,AACGATAG,0.0593
10,CTAGCCCC,-0.0928
11,ATCAGAGC,0.0403
12,GCACTAGA,-0.0697
13,ACATGGAT,0.0578
14,AACTGCGT,0.107
15,AAAATTAT,0.285
16,CATCTTTA,0.0991
17,ATAGTCCC,-0.0911
18,ATCCGGAA,0.22
19,AACGACAC,0.00382
20,ACCCTCTA,-0.192
21,GATGAACA,0.139
22,CTTGTTTC,0.029
23,ATCTTCAT,-0.073
24,GTAGTCCA,-0.154
25,CTCCTCAC,-0.203

row,Sequence,PBM E-score
1,GCTATCGA,-0.0158
2,AAAGGGTC,-0.206
3,AGGGCACG,-0.144
4,GCGCGGCA,0.0659
5,TACCGTAA,0.0192
6,AGTCCAAT,0.117
7,TCAACACA,0.226
8,CTCAATAA,-0.0752
9,CTTGGTGC,-0.0501
10,CCTGCACA,-0.161
11,ATGCATAA,0.213
12,CCCGGTAC,-0.274
13,ATGCATCC,0.0114
14,GAATCCTA,0.192
15,AACGGCAA,0.0972
16,GCGACCAA,0.164
17,CGCGTAAA,0.239
18,TCTCTTCA,-0.124
19,AAAGCCTA,-0.0751
20,ATGTGTTA,0.175
21,CTCCCCAG,-0.344
22,TAGGTGAA,0.0224
23,CTAGGGCA,-0.353
24,AGTCTCGC,0.018
25,ACCCTAAG,-0.101

# Given tab-delimited: entries from further up
row	Sequence	PBM E-score
13	ACATGGAT	0.0578
14	AACTGCGT	0.107
15	AAAATTAT	0.285
16	CATCTTTA	0.0991
17	ATAGTCCC	-0.0911
18	ATCCGGAA	0.22
19	AACGACAC	0.00382
20	ACCCTCTA	-0.192
21	GATGAACA	0.139
22	CTTGTTTC	0.029
23	ATCTTCAT	-0.073
24	GTAGTCCA	-0.154
25	CTCCTCAC	-0.203
1	GCTATCGA	-0.0158
2	AAAGGGTC	-0.206
3	AGGGCACG	-0.144
4	GCGCGGCA	0.0659
5	TACCGTAA	0.0192
6	AGTCCAAT	0.117
7	TCAACACA	0.226
8	CTCAATAA	-0.0752
10	CCTGCACA	-0.161
11	ATGCATAA	0.213
12	CCCGGTAC	-0.274
13	ATGCATCC	0.0114
14	GAATCCTA	0.192
15	AACGGCAA	0.0972
16	GCGACCAA	0.164
17	CGCGTAAA	0.239
18	TCTCTTCA	-0.124
19	AAAGCCTA	-0.0751
20	ATGTGTTA	0.175
21	CTCCCCAG	-0.344
22	TAGGTGAA	0.0224
24	AGTCTCGC	0.018
25	ACCCTAAG	-0.101

# Remaining list, next part

row,Sequence,PBM E-score
1,CATTCATA,0.196
2,CTCAGGGC,-0.0254
3,CTGCCTCC,-0.304
4,TTAACCAA,0.171
5,GAAACGCA,0.018
6,CCTCTCAC,-0.0674
7,CACAGAAA,0.0466
8,CCCAAGTC,-0.196
9,GACTATGA,0.0424
10,CGGCATAA,0.0918
11,CGTTGTGA,0.11
12,GTAGGAAC,0.131
13,GAATACCA,0.133
14,AAAGGGGC,-0.12
15,TCCCTACA,-0.0112
16,AAGCCGGG,0.0523
17,CTGGAAAG,-0.133
18,ACATATCA,0.234
19,CGAGTGGC,-0.203
20,CTATGGAA,-0.0317
21,CTTCCGCA,0.0248
22,CTTGGTTC,0.0483
